Data on one molecule can be found in article PMC4772809, “Network of protein interactions within the Drosophila inner kinetochore” (Open Biology, 2016).

The target of the assay is Nnf1a (yeast two-hybrid fusion) (Drosophila melanogaster). Description: two-hybrid; Matchmaker Gold, pGAD424 (GAL4 AD) and pGBT9 (GAL4 BD) fusions, mating of Y187-type and Y2H Gold strains or co-transformation of Y2H Gold (mutants); growth on selective plates.

No constants are given. Whether binding was seen depends on the method and setting. Where a sequence is shown, tags or fusion partners need not be part of it.

B1: CENP-C residues 1–188 (yeast two-hybrid fusion) (domain or fragment, UniProt Q9VHP9 1-188)
chain: MSKPQNNDTLELDDILSQPVKDKERFAAFMMRKLAENKPAQNDNLFGNFKLDFDLDFEVPLIKKSQAKPKSKLPEVQPLGELVSKNSAATEKVNEPPVDQAPNENVPPRRSPTLSPNNRRSMRRSGNVPGSDKLRRHAIRRRSRSCGRQLLPEFEETVNLTRSISSPVNFLPEISSTPCTEKQKEEVA
As for B1, the binding entry is recorded as “no binding”.
